Data: patent US20130108549A1
Results are given in words; binding and its absence hold for the method and conditions named. Some binding calls cover weakened binding; strength is not graded here.

How the values were obtained:
[1] = target: Aβ plaques / amyloid deposits in brain of transgenic mice over-expressing human APP751 with London and Swedish mutations (hAPP751SL) (human) (UniProt P05067); experiment: in vivo intranasal administration to hAPP751SL transgenic mice, fluorescence microscopy of brain slices
[2] = target: Aβ plaques / amyloid deposits in brain of transgenic mice over-expressing human APP751 with London and Swedish mutations (hAPP751SL) (human) (UniProt P05067); experiment: fluorescence microscopy of brain slices of hAPP751SL transgenic mice incubated with the labeled probe, overlaid with anti-Aβ antibody / Thioflavin S staining

- binding [1]: binds
- binding [2]: binds
Binder: KLVFFAEDVGSNKGAIIGLM (pyrene label at each terminus) [Peptide probe specific for Aβ (SEQ ID NO:36) labeled at each terminus with pyrene]
